In the data set the test system is whole proteome from Jurkat and K562 cells. The experiment in a line: SIM-PAL conjugated peptide identification in whole cell proteome.

We go through 4 molecules from patent publication US11912664B2, “Determining small molecule-protein and protein-protein interactions” (President and Fellows of Harvard College, priority 2017, dated 2024).

`C#CCCC1(CCOC(=O)NC2CCC(=O)NC2=O)N=N1` (stereo not shown) [photo-glutarimide 8, 2-(3-(but-3-yn-1-yl)-3H-diazirin-3-yl)ethyl (2,6-dioxopiperidin-3-yl)carbamate]: the “conjugated peptides detected exclusively by that compound” value was “nine”.
On to `C#CCCC1(CCOc2ccc3cc([C@H](C)C(=O)O)ccc3c2)N=N1` [photo-naproxen (4), (S)-2-(6-(2-(3-(but-3-yn-1-yl)-3H-diazirin-3-yl)ethoxy)naphthalen-2-yl)propanoic acid], for which the “number of peptides found conjugated” value amounted to 85.
Still for that read-out and setting: to `C#CCCC1(CCOc2cc(C(F)(F)F)nn2-c2ccc(S(N)(=O)=O)cc2)N=N1` [photo-celecoxib (5), 4-(5-(2-(3-(but-3-yn-1-yl)-3H-diazirin-3-yl)ethoxy)-3-(trifluoromethyl)-1H-pyrazol-1-yl)benzenesulfonamide] belongs 93; to `C#CCCC1(CCNC(=O)Cc2c(C)n(C(=O)c3ccc(Cl)cc3)c3ccc(OC)cc23)N=N1` [photo-indomethacin (6)], 34.
